## Cell number after 72 h of treatment

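Human melanoma cell lines in 1,536-well plates were treated with two drugs together for 72 h, then fixed, stained and imaged. Each value is the count of nuclei relative to DMSO-treated wells, in %, so that 100 equals the control. Every drug was used at one fixed concentration, the lower of two screened (a fifth of the higher). The file gives one value for each pair and line, without errors, so small differences may be noise.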 Only some of the drugs and lines screened are listed, without regard to their results. A dash means that no value is listed here.

Every entry is a combination with etoposide at 0.02 µM: COc1cc([C@@H]2c3cc4c(cc3[C@@H](O[C@@H]3O[C@@H]5CO[C@@H](C)O[C@H]5[C@H](O)[C@H]3O)[C@H]3COC(=O)[C@H]23)OCO4)cc(OC)c1O

Second drug	A101D	C32	COLO 800	G-361	501mel	A2058
N.N.[Cl][Pt][Cl] at 1.6 µM	96.5	85.6	72.6	90.3	-	84.0
C[C@@H]1CCN(C(=O)CC#N)C[C@@H]1N(C)c1ncnc2[nH]ccc12 at 1 µM	97.7	98.7	77.1	114	-	106
O=C(CCCCCCC(=O)Nc1ccccc1)NO at 0.08 µM	89.8	105	83.2	103	-	94.9
C[C@@H](N)c1ccc(C(=O)Nc2ccnc3[nH]ccc23)cc1 at 0.4 µM	86.8	86.7	103	121	-	95.5
CC1(C)NC(=O)N(c2ccc([N+](=O)[O-])c(C(F)(F)F)c2)C1=O at 1 µM	95.2	93.0	80.5	90.3	-	97.9
CC(C)CCN1c2nc(Nc3cc(F)c(O)c(F)c3)ncc2N(C)C(=O)C1C (stereo not shown) at 0.2 µM	98.4	98.9	98.1	93.4	94.8	88.4
CC1(C)CCC(c2ccc(Cl)cc2)=C(CN2CCN(c3ccc(C(=O)NS(=O)(=O)c4ccc(N[C@H](CCN5CCOCC5)CSc5ccccc5)c(S(=O)(=O)C(F)(F)F)c4)cc3)CC2)C1 at 0.4 µM	51.1	47.3	64.8	79.2	-	85.1
COc1ccc2c(c1)CCC1C2CCC2(C)C(NCCCCCCN3C(=O)C=CC3=O)CCC12 (stereo not shown) at 0.4 µM	88.2	92.3	134	93.4	112	75.9
Cc1ccc(Nc2nccc(N(C)c3ccc4c(C)n(C)nc4c3)n2)cc1S(N)(=O)=O at 0.4 µM	105	111	93.8	105	-	97.0
O=C(O)c1ccc(-c2c[nH]c3ncc(-c4ccccc4)cc23)cc1C1CCCC1 at 0.16 µM	90.9	100	74.2	85.9	-	77.8
Cn1cc(/C=C2\C(=O)Nc3cccnc32)c2ccccc21 at 0.4 µM	91.8	82.6	101	127	105	91.2
COc1ccc(COc2ccc(Cc3cnc(N)nc3N)cc2OC)cc1 at 1 µM	92.6	96.1	114	97.4	61.5	89.7
COc1cc2ncnc(Nc3ccc(Oc4ccccc4)cc3)c2cc1OC at 2 µM	92.5	102	83.4	102	70.5	80.0
CC(=O)c1c(C)c2cnc(Nc3ccc(N4CCNCC4)cn3)nc2n(C2CCCC2)c1=O at 0.04 µM	83.4	89.8	66.6	87.5	-	102
O=C(O)c1ccc2c(c1)nc(Nc1cccc(Cl)c1)c1ccncc12 at 0.4 µM	112	102	109	94.8	-	105
Cn1cc(C2=C(c3cn(C4CCN(Cc5ccccn5)CC4)c4ccccc34)C(=O)NC2=O)c2ccccc21 at 0.8 µM	96.2	110	149	107	-	103
O=C(/C=C/c1cccnc1)NCCCCC1CCN(C(=O)c2ccccc2)CC1 at 0.01 µM	92.3	102	23.4	18.9	-	103
O=S(=O)(c1ccccc1)N(CC(F)(F)F)c1ccc(C(O)(C(F)(F)F)C(F)(F)F)cc1 at 1.4 µM	78.4	83.9	98.4	92.1	91.1	89.4
Cn1cncc1[C@@](N)(c1ccc(Cl)cc1)c1ccc2c(c1)c(-c1cccc(Cl)c1)cc(=O)n2C at 0.01 µM	89.5	90.8	104	100	-	93.9

2 of the entries, repeated:

Second drug	A101D	C32	COLO 800	G-361	501mel	A2058
CC1(C)NC(=O)N(c2ccc([N+](=O)[O-])c(C(F)(F)F)c2)C1=O at 1 µM	95.2	93.0	80.5	90.3	-	97.9
O=C(/C=C/c1cccnc1)NCCCCC1CCN(C(=O)c2ccccc2)CC1 at 0.01 µM	92.3	102	23.4	18.9	-	103

Values as published with doi:10.1371/journal.pone.0140310, rounded.